# Test results as given in the supplement of paper PMC10689618.
# The list shows a part of the results. Repeats are few or missing, and single values can be far off.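 Primary human fetal astrocytes engulfed labelled rat cortical synaptosomes, measured as a red/green ratio corrected for calcein live-cell signal and scaled to the plate median. Toxicity meant calcein falling over 30%; decreased phagocytosis meant below 70% of median above 5 µM.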
# What was measured:
# Human fetal astrocytes [1] = experiment: loss of total cells relative to no-compound high-control median (toxicity); higher = more toxic (fewer cells); details: 24 h
# Human fetal astrocytes [2] = experiment: synaptosome phagocytosis (pHrodo/calcein intensity ratio) relative to plate median of data wells; higher = more phagocytosis; details: 24 h
SMILES,loss of total cells (Human fetal astrocytes [1]; 1.39 µM),loss of total cells (Human fetal astrocytes [1]; 2.78 µM),loss of total cells (Human fetal astrocytes [1]; 5.56 µM),loss of total cells (Human fetal astrocytes [1]; 11.11 µM),loss of total cells (Human fetal astrocytes [1]; 22.22 µM),synaptosome phagocytosis (Human fetal astrocytes [2]; 1.39 µM),synaptosome phagocytosis (Human fetal astrocytes [2]; 2.78 µM),synaptosome phagocytosis (Human fetal astrocytes [2]; 5.56 µM),synaptosome phagocytosis (Human fetal astrocytes [2]; 11.11 µM),synaptosome phagocytosis (Human fetal astrocytes [2]; 22.22 µM)
CC(C)[C@H]1CC[C@H](C(=O)N[C@H](Cc2ccccc2)C(=O)O)CC1,-9.1%,-4.6%,13.5%,-12.5%,11.9%,105%,112%,108%,126%,107%
CC[N+](CC)(CC(=O)Nc1c(C)cccc1C)Cc1ccccc1,-17.8%,0%,-36.6%,-5.8%,7%,91.1%,99.2%,55.4%,78.4%,82.4%
CN(C)CCCO[C@@H]1[C@H]2OC(C)(C)O[C@H]2O[C@@H]1[C@H](O)CO,-27.4%,-21.4%,-11.2%,12.1%,-8.4%,121%,92.2%,124%,113%,100%
CCOc1ccc2nc(S(N)(=O)=O)sc2c1,12.1%,-37.3%,19.3%,-10.2%,1.6%,165%,103%,115%,90.7%,115%
Cn1c(=O)c2nc[nH]c2n(C)c1=O,-29%,-1.5%,-5.7%,-25%,-0.6%,90%,101%,106%,109%,104%
CCCCC(CC)CN=C(N)N=C(N)NCCCCCCNC(N)=NC(N)=NCC(CC)CCCC (stereo not given),-10.7%,-4.7%,9.5%,36.5%,59.3%,97.7%,101%,86.5%,58.5%,3.6%
CC(=O)OC[C@@]1(O)C[C@@]23CC[C@@H]4c5ccoc5CC[C@@]4(C)[C@@H]2CC[C@@H]1C3,-0.8%,-11.2%,-6.6%,13.5%,10.4%,139%,84.5%,83.9%,108%,48.5%
CC1(C)CC[C@]2(C(=O)O)CC[C@]3(C)C(=CC[C@@H]4[C@@]5(C)CC[C@H](O)C(C)(C)[C@@H]5CC[C@]43C)[C@@H]2C1,-17.8%,6.6%,30.5%,45.8%,4.8%,73.7%,49.8%,136%,99.9%,140%
CC(CN(C)C)CN1c2ccccc2Sc2ccccc21 (stereo not given),-19.3%,-22%,-20.9%,4.3%,44.1%,91.9%,76.9%,67.5%,44.1%,55.5%
CC(=O)/C(=C\c1ccccc1)CC(=O)O,-8.2%,0.4%,7.3%,14.9%,21.5%,104%,112%,88.5%,92.3%,92.9%
C[C@@H]1CC[C@H]2[C@](C)(CO)[C@@H](O)CC[C@]2(C)[C@@]12CC[C@@](CO)(CCO)O2,-9.8%,-5.4%,5.9%,-2%,5.2%,132%,73.9%,116%,90.4%,77.7%
CN(C)CCc1c[nH]c2ccc(Cn3cncn3)cc12,-46%,-40.5%,-12.4%,-11.5%,-5.3%,71.6%,89%,114%,93.8%,126%
O=S(=O)(O)CCS,25%,-23.8%,-8.1%,39%,5.3%,149%,107%,102%,125%,89.2%
COc1ccc(-c2coc3c(O)c(OC)ccc3c2=O)cc1,23.6%,0.7%,-12.2%,37.4%,7%,152%,90.7%,105%,120%,96.7%
NCCCC(O)(P(=O)(O)O)P(=O)(O)O,-56.5%,-42.9%,6.8%,37%,0.9%,93.2%,117%,125%,140%,124%
O[C@H]1[C@H]2c3cc4c(cc3CN3CCC(=C[C@@H]1O)[C@H]23)OCO4,-8.3%,-4.7%,33.6%,39.4%,4.8%,88%,81.5%,94.4%,74.6%,87.2%
CC1=CC(=O)c2ccccc2C1=O,-25%,-11.1%,1.9%,52.8%,28.3%,112%,90.4%,101%,116%,96.2%
CC(=O)Oc1cc2c(c(C)c1OC(C)=O)CC=C1[C@@]2(C)CC[C@@]2(C)C3C[C@](C)(C(=O)O)CC[C@]3(C)CC[C@]12C (stereo not given in full),1.8%,7.6%,8%,79.9%,30.3%,106%,96.5%,56.6%,0%,36.1%
C[C@]12CCC3c4ccc(OC(=O)c5ccccc5)cc4CCC3C1CCC2=O (stereo not given in full),6.1%,6.1%,3.6%,2.9%,-9.1%,61.6%,118%,86.3%,131%,106%
NCCNCCNCCN,-29.8%,-27.8%,0%,39%,1.6%,120%,89.9%,88.2%,137%,101%

# Arranged by SMILES length (ascending): part of the list above
SMILES,loss of total cells (Human fetal astrocytes [1]; 1.39 µM),loss of total cells (Human fetal astrocytes [1]; 2.78 µM),loss of total cells (Human fetal astrocytes [1]; 5.56 µM),loss of total cells (Human fetal astrocytes [1]; 11.11 µM),loss of total cells (Human fetal astrocytes [1]; 22.22 µM),synaptosome phagocytosis (Human fetal astrocytes [2]; 1.39 µM),synaptosome phagocytosis (Human fetal astrocytes [2]; 2.78 µM),synaptosome phagocytosis (Human fetal astrocytes [2]; 5.56 µM),synaptosome phagocytosis (Human fetal astrocytes [2]; 11.11 µM),synaptosome phagocytosis (Human fetal astrocytes [2]; 22.22 µM)
NCCNCCNCCN,-29.8%,-27.8%,0%,39%,1.6%,120%,89.9%,88.2%,137%,101%
O=S(=O)(O)CCS,25%,-23.8%,-8.1%,39%,5.3%,149%,107%,102%,125%,89.2%
COc1ccc(-c2coc3c(O)c(OC)ccc3c2=O)cc1,23.6%,0.7%,-12.2%,37.4%,7%,152%,90.7%,105%,120%,96.7%
